The whole screen tested about 350,000 compounds, of which about 6,000 (1.7%) were called active. This list was built around the results that the source calls inconclusive (neither active nor inactive); the mix of calls is not that of the screen. Rule as the data show it: active = CPE inhibition above about 20% (passing the limit was not always enough); inconclusive = no clear call, values can overlap the other calls; tested in BHK-21 cells.
Test: protection of cells from dengue 2 killing – plate reader, single concentration, primary screen (AID 651640);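 also: 0% = median of neutral control wells and 100% = median of positive control wells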
Details: DENV2-infected cells, cytopathic effect rescue, at 9.99 µM, active compounds read high

SMILES	CPE inhibition
COC(=O)C1=C(c2ccc(F)cc2OCc2ccccc2)C[C@@H]2CC[C@H]1N2C(=O)NCc1ccc(OC)c(OC)c1	inconclusive: 106%
CCCCn1c(NS(=O)(=O)c2ccc(C)cc2)c(C(=O)OCC)c2nc3ccccc3nc21	inconclusive: 23%
O=S(=O)(c1cc(Cl)cc(Cl)c1)N1Cc2cc(N3CCOCC3)ccc2-n2nncc2C1	active: 108%
COc1ccc(C#Cc2ccc([C@@H]3[C@H](CO)N4CCCCN(C(=O)Cc5ccncc5)C[C@@H]34)cc2)cc1	inactive: 10.8%
CCOC(=O)[C@]12Cc3cc4ccccc4cc3[C@H]1N(Cc1ccccc1)C(=O)c1cc(OC)ccc12	inconclusive: 42.1%
O=C(CCN1CC1)OCCOC(=O)CCN1CC1	inactive: 7.64%
COc1ccc(CC(C)NC2CCCCCC2)cc1 (configuration not stated)	inconclusive: 32.3%
C[C@H]1CN([C@@H](C)CO)C(=O)c2c(c3ccccc3n2C)-c2ccccc2CO[C@H]1CN(C)C(=O)Oc1ccccc1	active: 81.2%
C=CC1CN2CCC1C[C@@H]2CO (some centres not stated)	active: 20.2%
Cc1ccccc1-c1ccc([C@H]2[C@H]3CN(C(=O)Cc4ccccn4)CCCCN3[C@H]2CO)cc1	inactive: -7.81%
COc1ccc(-c2ccc([C@H]3[C@H]4CN(C(=O)Cc5ccncc5)CCCCN4[C@H]3CO)cc2)cc1	inconclusive: 27.9%
COc1ccc(CCNCc2cccn2C)cc1OC	active: 68.8%
C=CCCC1(C2=CCCCC2)C(=O)NC(=O)NC1=O	active: 26.6%
NS(=O)(=O)c1nc[nH]c1[N+](=O)[O-]	active: 29.4%
CCOC(=O)CNC(=O)N1Cc2ccc(Br)cc2-n2nncc2C1	inconclusive: 53.7%
CN1C(=O)C(=Cc2cccnc2)C(=O)N(C)C1=O	inconclusive: 36.4%
Cc1[nH]c2ccc(O)cc2c1CCN	active: 54.7%
O=C(NCC1=C(c2ccc3ccccc3c2)C[C@@H]2CC[C@H]1N2Cc1ccco1)c1ccc([N+](=O)[O-])cc1	inactive: 1.85%
COC(=O)[C@H]1[C@H](CO)[C@H]2Cn3c(ccc(-c4cccnc4)c3=O)[C@@H]1N2S(=O)(=O)c1ccccc1F	inactive: 6.72%
CN(C)C1(CNC(=O)Nc2ccc(Cl)c(Cl)c2)CCCCC1	inconclusive: 30.6%
CCC(=O)N1[C@@H]2Cn3c(ccc(-c4ccc(F)cc4)c3=O)[C@H]1[C@@H](C(=O)OC)[C@@H]2CO	inconclusive: 28.2%

SMILES	CPE inhibition
C[C@H]1CN([C@@H](C)CO)C(=O)CCCn2nncc2CO[C@H]1CN(C)C(=O)Oc1ccccc1	inconclusive: 34.5%
Nc1ncc2[nH]cnc2n1	inconclusive: 48.1%
ClC1=C(Cl)C2(Cl)C3C(Cl)C=CC3C1(Cl)C2(Cl)Cl (configuration not stated)	active: 28.1%
Cc1cc(OC(C)C(=O)NCC(O)c2ccccc2)c2c3c(c(=O)oc2c1)CCCC3 (configuration not stated)	inconclusive: 25.1%
CC(C)(O)C(=O)Nc1ccc([N+](=O)[O-])c(C(F)(F)F)c1	inactive: -13.3%
CN1[C@H]2CC[C@@H]1C(C(=O)N1CCOCC1)=C(O)C2	inconclusive: 29.4%
COC(=O)C1=C(c2ccc(OC)c(OC)c2)C[C@@H]2CC[C@H]1N2C(=O)NCCO	inconclusive: 55.9%
COc1ccc(OC)c(C(c2c(O)c3ccccc3oc2=O)c2c(C)n(C)n(-c3ccccc3)c2=O)c1 (configuration not stated)	inactive: -0.268%
C=CCN1C[C@H](C)N(C(c2ccc(C(=O)N(CC)CC)cc2)c2cccc(OC)c2)CC1C (some centres not stated)	inactive: 9.19%
N#Cc1cccc(-c2ccc([C@H]3[C@@H](CO)N4CCCCN(C(=O)Cc5ccccc5)C[C@H]34)cc2)c1	active: 26.5%
C[C@H](CO)N1C[C@H](C)[C@H](CN(C)C(=O)Oc2ccccc2)OCc2cnnn2CCCC1=O	inconclusive: 20.5%
Cc1ccccc1NC(=O)N1Cc2ccccc2-n2nncc2C1	inconclusive: 59.3%
COC(=O)[C@@H]1[C@@H](CO)[C@@H]2Cn3c(cccc3=O)[C@H]1N2CCc1ccccc1	inactive: -1.83%
Cc1ccccc1-c1ccc2c(c1)C1c3c(-c4ccccc4)nnn3-c3ccccc3C(=O)N1CC2 (configuration not stated)	inconclusive: 44.6%
O=C(CCC(=O)N1C[C@H]2C[C@@H](C1)c1cccc(=O)n1C2)NCc1ccc(F)cc1	active: 81%
CCn1c(C)c(C(=O)NCCc2ccccc2)c2cc(OC)ccc21	inconclusive: 23.4%
c1ccc(Nc2ccc3ccccc3c2)cc1	inconclusive: 33.3%
CC(C)[C@H](NC(=O)N1C[C@H]2C[C@@H](C1)c1cccc(=O)n1C2)C(=O)Nc1ccccc1F	active: 58.2%
COC(=O)C1=C(c2ccc(C(C)=O)cc2)C[C@@H]2CC[C@H]1N2C(=O)NCc1ccco1	inconclusive: 66.3%
CC(C)C1C(C#N)=C(N)Oc2c1c(=O)oc1ccccc21 (configuration not stated)	inconclusive: 42.1%
CC(=NCCc1ccccc1)c1c(O)n(C)c(=O)n(C)c1=O	inconclusive: 30.6%

SMILES	CPE inhibition
O=C(NP(=O)(N1CC1)N1CC1)c1cc(I)ccc1I	inactive: 11.8%
C[C@H]1CN([C@@H](C)CO)C(=O)CCCn2nncc2CO[C@@H]1CN(C)C(=O)Oc1ccccc1	inconclusive: 33.5%
Fc1ccc(N2Cc3ccccc3-n3nncc3C2)cc1	inconclusive: 62.5%
O=C1NC2C(O)C(O)C(O)C(O)C2c2cc3c(c(O)c21)OCO3 (configuration not stated)	inconclusive: 38.2%
COc1cccc(C2CCN(C)C2)c1 (configuration not stated)	inactive: -2.23%
CC(C)N1CCN(Cc2cc3c(cc2Cl)OCO3)CC1CCO (configuration not stated)	inactive: -2.18%
FC(F)=C(F)CCSc1ncn[nH]1	inconclusive: 28.2%
COc1ccc2c(c1)[C@@]13CCC=C[C@H]1[C@@H](C2)NCC3	inconclusive: 35.3%
NC(Cc1ccc(F)cc1)c1csc(Nc2ccccn2)n1 (configuration not stated)	inconclusive: 25.9%
C=CC1C[N+]2(C)CCC1CC2C(O)c1ccnc2ccccc12 (configuration not stated)	inconclusive: 93.2%
C/C=C/c1ccc([C@@H]2[C@H](CO)N3CCCCN(C(=O)Cc4cccnc4)C[C@@H]23)cc1	inactive: 4.03%
FC(F)(F)Oc1ccc(NC2=NCCCS2)cc1	inconclusive: 23.2%
COC(=O)[C@@H]1[C@@H](CO)[C@@H]2Cn3c(ccc(C4=CCCC4)c3=O)[C@H]1N2CC1CCCC1	inactive: -7.28%
C=C1[C@H]2CC[C@H]3[C@]4(C)C[C@H](O[C@@H]5OC(CO)[C@@H](OSOOO)[C@H](OS(=O)(=O)O)[C@H]5OC(=O)CC(C)C)C[C@@H](C(=O)O)[C@H]4CC[C@]3(C2)[C@H]1O (some centres not stated)	inconclusive: 26.2%
CC/C(=N\Nc1ccccc1)c1c(O)n(-c2ccc(OC)cc2)c(=O)[nH]c1=O	inconclusive: 25.8%
Clc1ccc2c(c1)C(OC1CN3CCC1CC3)c1ccccc1CS2 (configuration not stated)	inconclusive: 27.1%
CCC(c1nnnn1Cc1ccccc1)N1CCC2(CC1)C(=O)NCN2c1ccccc1 (configuration not stated)	inconclusive: 52.7%
O=C(Cc1cccnc1)N1CCCCN2[C@@H](CO)[C@@H](c3ccc(C#CC4CCCC4)cc3)[C@@H]2C1	active: 32.4%
COc1ccc(C#Cc2ccc([C@@H]3[C@H]4CN(C(=O)Cc5ccncc5)CCCCN4[C@H]3CO)cc2)cc1	inactive: -1.64%
CCN(C)C(C)Cc1cccc(C(F)(F)F)c1 (configuration not stated)	inconclusive: 21.4%
CN1CC(C(=O)c2cccc(C(F)(F)F)c2)C(c2ccc(Cl)cc2)C1 (configuration not stated)	inactive: -2.64%

SMILES	CPE inhibition
CN1OC[C@@H]2CN[C@H](c3ccccc3Br)C[C@@H]21	inconclusive: 22.2%
CC(C)n1c(O)c(C=NCc2cccnc2)c(=O)[nH]c1=S	inconclusive: 24.8%
COC/C=C1\CN2C3C[C@@H]1[C@H]1COC4=Nc5cc(OC)c(OC)c(OC)c5[C@@]43C[C@@H]12	inactive: -2.65%
Cc1ccc(-n2c(O)c(C=NCCC3=CCCCC3)c(=O)[nH]c2=O)cc1	inconclusive: 20.9%
O=[N+]([O-])c1ccc(NCc2ccccc2)c2nonc12	inconclusive: 26.5%
O=C1NCN(c2ccccc2)C12CCN(C(c1ccccc1OC(F)(F)F)c1nnnn1C1CCCC1)CC2 (configuration not stated)	inconclusive: 54.1%
Cc1cc(C)n(-c2ccc(NN=C(C#N)C#N)cc2)n1	active: 31.2%
C=C1[C@H]2C[C@H]3[C@H]4N5C[C@]6(C)CCC[C@]47[C@H]([C@H]2O)[C@]3(C[C@]5(O)[C@H]67)[C@@H]1O	inconclusive: 26.7%
O=C(Nc1ccc(C(F)(F)F)cc1)OC1CN2CCC1CC2 (configuration not stated)	active: 38.6%
Cc1c(CCC(=O)N2C[C@H]3C[C@@H](C2)c2cccc(=O)n2C3)c(=O)oc2c(C)c(O)ccc12	active: 55.9%
NP(=O)(OCCCCc1ccccc1)Oc1ccccc1Cl (configuration not stated)	inconclusive: 21.2%
CC[C@@H]1C(=O)OC[C@@H]1Cc1cncn1C	inconclusive: 20.5%
CN(C)c1cc[n+](CC(O)C[n+]2ccc(N(C)C)cc2)cc1	active: 25.1%
COc1cc2c(c(OC)c1O)-c1ccc(OC)c(=O)cc1C(NC(=O)C(F)(F)F)CC2 (configuration not stated)	inconclusive: 70.9%
O=C(NC1CCCCC1)Oc1cc2oc(=O)sc2cc1Cl	inactive: 15.2%
CCOC(=O)[C@@H]1[C@@H]2NC(=S)N(C)[C@@]1(C)Oc1ccccc12	inactive: 14.5%
CC(C)=CCN1CC[C@@]2(C)c3cc(O)ccc3C[C@@H]1C2C (some centres not stated)	inconclusive: 49%
CC1[C@H]2Cc3ccc(O)cc3[C@]1(C)CCN2CCc1ccccc1 (some centres not stated)	inconclusive: 69.7%
COC(=O)C1=C(c2c(C)noc2C)C[C@@H]2CC[C@H]1N2C(=O)NCc1ccc(F)cc1	inconclusive: 21.7%

Single entries from the list.
CPE inhibition, O=C(Cc1cccnc1)N1CCCCN2[C@@H](CO)[C@@H](c3ccc(C#CC4CCCC4)cc3)[C@@H]2C1 is entered as active: 32.4%
CPE inhibition, CN(C)c1cc[n+](CC(O)C[n+]2ccc(N(C)C)cc2)cc1 is entered as active: 25.1%
CPE inhibition, Cc1ccccc1NC(=O)N1Cc2ccccc2-n2nncc2C1 is entered as inconclusive: 59.3%
CPE inhibition, CCOC(=O)[C@@H]1[C@@H]2NC(=S)N(C)[C@@]1(C)Oc1ccccc12 is entered as inactive: 14.5%
CPE inhibition, COc1ccc2c(c1)[C@@]13CCC=C[C@H]1[C@@H](C2)NCC3 is entered as inconclusive: 35.3%

Reference: PubChem BioAssay AID651640 (Broad Institute, 2012)
